Source: paper PMC5432348
Results are given in words; binding and its absence hold for the method and conditions named. Binding seen in cells or lysates may run through a third protein. These calls come from enrichment with a bait or labelling near it, and not all partners need be listed.

The chains behind the UniProt entries cited, without tags or fusion partners. Where a name states a change or a piece, a line headed by the entry shows the natural chain unless it says otherwise. Residues count along the entry.
UniProt P21926: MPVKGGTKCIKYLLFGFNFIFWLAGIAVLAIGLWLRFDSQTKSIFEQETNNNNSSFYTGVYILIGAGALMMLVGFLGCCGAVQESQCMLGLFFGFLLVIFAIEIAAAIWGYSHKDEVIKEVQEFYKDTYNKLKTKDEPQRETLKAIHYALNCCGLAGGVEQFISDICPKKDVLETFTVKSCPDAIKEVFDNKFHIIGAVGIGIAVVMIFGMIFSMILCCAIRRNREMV
UniProt P43121, residues 24-646: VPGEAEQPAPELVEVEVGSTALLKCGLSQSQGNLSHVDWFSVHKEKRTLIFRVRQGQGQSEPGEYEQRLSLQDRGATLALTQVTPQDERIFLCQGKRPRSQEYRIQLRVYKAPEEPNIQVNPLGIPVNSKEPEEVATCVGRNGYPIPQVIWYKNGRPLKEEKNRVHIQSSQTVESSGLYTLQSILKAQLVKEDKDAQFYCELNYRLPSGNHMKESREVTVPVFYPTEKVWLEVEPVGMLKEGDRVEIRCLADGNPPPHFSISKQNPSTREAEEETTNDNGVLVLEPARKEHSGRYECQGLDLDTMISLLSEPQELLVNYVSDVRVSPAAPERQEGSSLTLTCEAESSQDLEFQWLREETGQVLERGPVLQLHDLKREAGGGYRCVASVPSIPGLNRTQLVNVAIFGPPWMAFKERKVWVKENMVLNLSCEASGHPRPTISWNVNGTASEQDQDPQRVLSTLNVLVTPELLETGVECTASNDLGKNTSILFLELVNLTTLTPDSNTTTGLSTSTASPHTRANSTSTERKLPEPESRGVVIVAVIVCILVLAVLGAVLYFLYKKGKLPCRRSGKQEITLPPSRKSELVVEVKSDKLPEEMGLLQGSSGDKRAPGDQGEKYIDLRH
UniProt Q9P273: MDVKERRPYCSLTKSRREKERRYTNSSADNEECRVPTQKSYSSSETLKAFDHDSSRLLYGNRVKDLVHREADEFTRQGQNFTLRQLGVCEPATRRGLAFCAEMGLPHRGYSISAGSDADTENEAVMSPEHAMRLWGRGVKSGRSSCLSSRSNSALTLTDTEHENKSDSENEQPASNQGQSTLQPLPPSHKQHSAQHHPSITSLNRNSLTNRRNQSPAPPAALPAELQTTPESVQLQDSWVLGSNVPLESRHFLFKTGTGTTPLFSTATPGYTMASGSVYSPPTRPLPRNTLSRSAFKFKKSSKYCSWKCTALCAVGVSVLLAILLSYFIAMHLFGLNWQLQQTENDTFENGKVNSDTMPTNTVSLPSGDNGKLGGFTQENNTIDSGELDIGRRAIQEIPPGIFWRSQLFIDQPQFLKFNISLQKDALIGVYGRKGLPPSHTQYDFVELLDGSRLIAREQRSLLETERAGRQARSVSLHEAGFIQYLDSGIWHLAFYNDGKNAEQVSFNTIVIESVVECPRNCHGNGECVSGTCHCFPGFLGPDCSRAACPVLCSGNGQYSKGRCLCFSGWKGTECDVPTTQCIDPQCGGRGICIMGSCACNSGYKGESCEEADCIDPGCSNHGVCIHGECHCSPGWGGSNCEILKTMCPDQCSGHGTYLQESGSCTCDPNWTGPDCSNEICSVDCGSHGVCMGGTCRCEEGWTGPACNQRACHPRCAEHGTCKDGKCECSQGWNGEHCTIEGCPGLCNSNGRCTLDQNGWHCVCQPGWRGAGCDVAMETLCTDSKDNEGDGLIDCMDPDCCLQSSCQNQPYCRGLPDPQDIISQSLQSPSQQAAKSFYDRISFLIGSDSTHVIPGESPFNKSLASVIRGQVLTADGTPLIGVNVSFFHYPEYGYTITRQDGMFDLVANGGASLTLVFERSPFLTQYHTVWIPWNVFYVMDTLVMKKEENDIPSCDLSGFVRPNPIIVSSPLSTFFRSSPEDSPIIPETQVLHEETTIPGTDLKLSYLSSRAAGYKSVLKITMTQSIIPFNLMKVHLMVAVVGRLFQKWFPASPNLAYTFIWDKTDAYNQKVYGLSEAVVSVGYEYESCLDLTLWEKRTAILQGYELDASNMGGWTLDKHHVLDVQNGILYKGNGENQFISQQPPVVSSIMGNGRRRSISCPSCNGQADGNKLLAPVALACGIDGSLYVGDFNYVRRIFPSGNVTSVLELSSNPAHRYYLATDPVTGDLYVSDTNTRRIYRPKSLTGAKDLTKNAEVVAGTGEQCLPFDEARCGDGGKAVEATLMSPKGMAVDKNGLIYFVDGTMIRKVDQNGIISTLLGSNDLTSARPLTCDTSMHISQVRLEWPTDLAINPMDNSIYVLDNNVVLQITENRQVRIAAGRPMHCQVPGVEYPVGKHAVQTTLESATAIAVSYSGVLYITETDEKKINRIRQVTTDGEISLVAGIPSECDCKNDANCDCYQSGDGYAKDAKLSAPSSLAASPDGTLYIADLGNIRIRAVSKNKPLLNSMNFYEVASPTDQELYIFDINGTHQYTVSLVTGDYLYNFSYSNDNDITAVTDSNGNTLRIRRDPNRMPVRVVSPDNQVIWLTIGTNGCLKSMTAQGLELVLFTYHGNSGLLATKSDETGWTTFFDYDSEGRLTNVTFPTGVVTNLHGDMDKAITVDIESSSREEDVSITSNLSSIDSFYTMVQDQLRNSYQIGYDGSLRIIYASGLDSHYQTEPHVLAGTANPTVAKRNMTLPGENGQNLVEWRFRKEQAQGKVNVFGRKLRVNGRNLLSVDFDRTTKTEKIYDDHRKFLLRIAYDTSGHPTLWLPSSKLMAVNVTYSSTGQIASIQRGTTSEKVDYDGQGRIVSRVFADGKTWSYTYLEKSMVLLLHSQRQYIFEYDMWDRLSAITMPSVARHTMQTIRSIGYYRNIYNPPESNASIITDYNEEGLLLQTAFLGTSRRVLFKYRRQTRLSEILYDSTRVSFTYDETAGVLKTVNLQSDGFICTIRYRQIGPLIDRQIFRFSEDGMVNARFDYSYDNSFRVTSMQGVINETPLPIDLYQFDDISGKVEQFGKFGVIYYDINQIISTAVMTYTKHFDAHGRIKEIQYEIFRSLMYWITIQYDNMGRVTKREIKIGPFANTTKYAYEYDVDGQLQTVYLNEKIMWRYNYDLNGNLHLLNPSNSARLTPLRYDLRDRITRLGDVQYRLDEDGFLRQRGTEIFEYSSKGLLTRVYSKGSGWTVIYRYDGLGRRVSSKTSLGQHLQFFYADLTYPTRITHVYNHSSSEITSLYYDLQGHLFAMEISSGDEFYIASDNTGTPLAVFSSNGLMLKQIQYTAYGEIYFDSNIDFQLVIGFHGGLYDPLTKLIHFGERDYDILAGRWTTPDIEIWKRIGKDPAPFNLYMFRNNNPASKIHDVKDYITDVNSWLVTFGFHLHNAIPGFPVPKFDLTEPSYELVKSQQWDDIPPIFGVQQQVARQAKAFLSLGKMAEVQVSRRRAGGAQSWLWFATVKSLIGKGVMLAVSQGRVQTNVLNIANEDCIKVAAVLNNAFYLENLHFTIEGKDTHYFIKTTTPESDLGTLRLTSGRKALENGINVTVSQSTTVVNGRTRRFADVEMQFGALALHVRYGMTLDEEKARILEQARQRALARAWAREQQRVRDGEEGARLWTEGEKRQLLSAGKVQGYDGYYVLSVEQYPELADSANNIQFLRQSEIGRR
UniProt O95832: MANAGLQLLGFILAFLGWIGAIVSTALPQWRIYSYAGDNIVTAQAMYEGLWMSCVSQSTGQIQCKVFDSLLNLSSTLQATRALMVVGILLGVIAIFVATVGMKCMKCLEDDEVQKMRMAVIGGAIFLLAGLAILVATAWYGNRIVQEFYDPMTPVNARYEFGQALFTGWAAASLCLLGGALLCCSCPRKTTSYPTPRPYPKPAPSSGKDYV
UniProt P05556: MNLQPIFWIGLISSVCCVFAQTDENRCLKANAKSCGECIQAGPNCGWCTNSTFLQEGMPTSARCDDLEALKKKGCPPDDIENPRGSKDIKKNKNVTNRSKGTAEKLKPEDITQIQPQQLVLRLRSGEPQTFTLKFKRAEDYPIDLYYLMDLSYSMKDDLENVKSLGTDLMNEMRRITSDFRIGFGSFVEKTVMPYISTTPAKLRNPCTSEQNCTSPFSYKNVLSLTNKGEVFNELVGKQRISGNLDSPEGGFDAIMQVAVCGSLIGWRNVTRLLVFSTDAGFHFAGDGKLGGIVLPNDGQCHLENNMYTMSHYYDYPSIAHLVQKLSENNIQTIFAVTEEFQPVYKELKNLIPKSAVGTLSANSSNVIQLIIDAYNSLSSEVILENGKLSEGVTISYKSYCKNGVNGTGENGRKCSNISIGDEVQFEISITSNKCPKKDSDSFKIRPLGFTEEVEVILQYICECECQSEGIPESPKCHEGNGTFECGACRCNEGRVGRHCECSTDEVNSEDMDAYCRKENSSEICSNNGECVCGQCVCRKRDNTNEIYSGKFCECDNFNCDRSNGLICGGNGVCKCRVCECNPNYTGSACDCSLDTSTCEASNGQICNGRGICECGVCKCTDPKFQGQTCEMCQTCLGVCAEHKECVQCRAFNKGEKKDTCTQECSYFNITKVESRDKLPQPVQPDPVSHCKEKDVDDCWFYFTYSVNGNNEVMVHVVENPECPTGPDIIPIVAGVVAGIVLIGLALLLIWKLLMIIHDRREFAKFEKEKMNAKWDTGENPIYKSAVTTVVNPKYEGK
UniProt P78536, residues 215-824: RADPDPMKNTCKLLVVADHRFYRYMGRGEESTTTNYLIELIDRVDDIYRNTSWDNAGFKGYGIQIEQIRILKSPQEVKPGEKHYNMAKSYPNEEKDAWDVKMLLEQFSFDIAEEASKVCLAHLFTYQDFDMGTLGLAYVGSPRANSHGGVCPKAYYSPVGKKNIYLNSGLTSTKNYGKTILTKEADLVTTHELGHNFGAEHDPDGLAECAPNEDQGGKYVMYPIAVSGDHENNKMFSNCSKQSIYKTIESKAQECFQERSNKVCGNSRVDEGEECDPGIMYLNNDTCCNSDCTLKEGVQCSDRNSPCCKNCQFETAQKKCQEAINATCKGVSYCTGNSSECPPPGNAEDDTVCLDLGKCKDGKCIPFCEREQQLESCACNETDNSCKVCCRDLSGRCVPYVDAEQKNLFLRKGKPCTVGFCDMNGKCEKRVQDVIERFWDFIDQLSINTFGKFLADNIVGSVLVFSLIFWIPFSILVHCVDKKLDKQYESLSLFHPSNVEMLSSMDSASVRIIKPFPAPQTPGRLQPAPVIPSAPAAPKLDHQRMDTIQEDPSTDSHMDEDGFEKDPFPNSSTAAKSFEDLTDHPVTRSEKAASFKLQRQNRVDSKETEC
UniProt P08962: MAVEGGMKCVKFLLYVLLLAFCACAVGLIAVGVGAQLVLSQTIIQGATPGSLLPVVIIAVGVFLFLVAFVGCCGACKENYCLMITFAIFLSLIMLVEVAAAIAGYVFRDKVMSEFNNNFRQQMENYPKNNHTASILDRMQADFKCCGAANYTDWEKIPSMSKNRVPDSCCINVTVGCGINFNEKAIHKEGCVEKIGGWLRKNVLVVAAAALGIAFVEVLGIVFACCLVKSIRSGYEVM
UniProt Q03405, residues 23-305: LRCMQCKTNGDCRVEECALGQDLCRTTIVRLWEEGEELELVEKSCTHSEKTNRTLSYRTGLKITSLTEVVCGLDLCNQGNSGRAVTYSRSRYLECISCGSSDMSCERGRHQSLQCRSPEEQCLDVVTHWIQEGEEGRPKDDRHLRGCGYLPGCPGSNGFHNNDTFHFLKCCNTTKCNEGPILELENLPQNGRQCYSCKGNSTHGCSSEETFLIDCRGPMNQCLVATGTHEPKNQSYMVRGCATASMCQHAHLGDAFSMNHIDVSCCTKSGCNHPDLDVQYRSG
UniProt P19440: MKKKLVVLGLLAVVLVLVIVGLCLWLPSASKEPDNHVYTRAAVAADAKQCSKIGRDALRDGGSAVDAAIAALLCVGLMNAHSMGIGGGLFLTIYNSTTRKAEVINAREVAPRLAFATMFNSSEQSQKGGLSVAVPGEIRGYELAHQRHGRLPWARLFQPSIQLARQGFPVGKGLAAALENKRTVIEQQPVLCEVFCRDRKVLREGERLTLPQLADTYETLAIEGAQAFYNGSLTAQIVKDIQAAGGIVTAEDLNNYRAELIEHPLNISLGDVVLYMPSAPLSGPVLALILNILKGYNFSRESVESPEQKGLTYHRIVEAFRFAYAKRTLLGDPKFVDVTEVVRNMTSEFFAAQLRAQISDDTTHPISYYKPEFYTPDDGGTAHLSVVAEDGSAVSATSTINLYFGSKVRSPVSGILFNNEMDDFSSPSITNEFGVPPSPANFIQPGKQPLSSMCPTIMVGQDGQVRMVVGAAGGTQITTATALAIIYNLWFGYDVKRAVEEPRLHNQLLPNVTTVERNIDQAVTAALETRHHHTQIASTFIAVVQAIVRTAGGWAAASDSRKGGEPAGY
UniProt P32856: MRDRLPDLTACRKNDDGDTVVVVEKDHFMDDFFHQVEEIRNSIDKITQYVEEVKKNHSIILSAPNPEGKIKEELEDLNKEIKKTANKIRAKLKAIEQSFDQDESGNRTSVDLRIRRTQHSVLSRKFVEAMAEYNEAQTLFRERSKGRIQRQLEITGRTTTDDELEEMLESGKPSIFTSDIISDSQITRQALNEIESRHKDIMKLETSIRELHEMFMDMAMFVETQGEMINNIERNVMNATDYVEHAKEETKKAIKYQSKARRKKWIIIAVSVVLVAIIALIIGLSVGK

T1: tetraspanin Co-029/tspan8 (UniProt P19075)
T1 sequence: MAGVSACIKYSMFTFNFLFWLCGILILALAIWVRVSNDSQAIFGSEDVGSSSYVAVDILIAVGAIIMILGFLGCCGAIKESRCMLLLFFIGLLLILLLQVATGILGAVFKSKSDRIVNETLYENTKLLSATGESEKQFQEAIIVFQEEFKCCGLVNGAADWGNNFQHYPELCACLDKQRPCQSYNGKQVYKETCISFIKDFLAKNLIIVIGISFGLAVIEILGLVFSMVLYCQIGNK

B1: LMAN2 (protein, UniProt Q12907 45-356)
chain: DITDGNSEHLKREHSLIKPYQGVGSSSMPLWDFQGSTMLTSQYVRLTPDERSKEGSIWNHQPCFLKDWEMHVHFKVHGTGKKNLHGDGIALWYTRDRLVPGPVFGSKDNFHGLAIFLDTYPNDETTERVFPYISVMVNNGSLSYDHSKDGRWTELAGCTADFRNRDHDTFLAVRYSRGRLTVMTDLEDKNEWKNCIDITGVRLPTGYYFGASAGTGDLSDNHDIISMKLFQLMVEHTPDEESIDWTKIEPSVNFLKSPKDNVDDPTGNFRSGPLTGWRVFLLLLCALLGIVVCAVVGAVVFQKRQERNKRFY
B2: SLC44A1 (protein, UniProt Q8WWI5 1-657)
chain: MGCCSSASSAAQSSKREWKPLEDRSCTDIPWLLLFILFCIGMGFICGFSIATGAAARLVSGYDSYGNICGQKNTKLEAIPNSGMDHTQRKYVFFLDPCNLDLINRKIKSVALCVAACPRQELKTLSDVQKFAEINGSALCSYNLKPSEYTTSPKSSVLCPKLPVPASAPIPFFHRCAPVNISCYAKFAEALITFVSDNSVLHRLISGVMTSKEIILGLCLLSLVLSMILMVIIRYISRVLVWILTILVILGSLGGTGVLWWLYAKQRRSPKETVTPEQLQIAEDNLRALLIYAISATVFTVILFLIMLVMRKRVALTIALFHVAGKVFIHLPLLVFQPFWTFFALVLFWVYWIMTLLFLGTTGSPVQNEQGFVEFKISGPLQYMWWYHVVGLIWISEFILACQQMTVAGAVVTYYFTRDKRNLPFTPILASVNRLIRYHLGTVAKGSFIITLVKIPRMILMYIHSQLKGKENACARCVLKSCICCLWCLEKCLNYLNQNAYTATAINSTNFCTSAKDAFVILVENALRVATINTVGDFMLFLGKVLIVCSTGLAGIMLLNYQQDYTVWVLPLIIVCLFAFLVAHCFLSIYEMVVDVLFLCFAIDTKYNDGSPGREFYMDKVLMEFVENSRKAMKEAGKGGVADSRELKPMASGASSA
B3: tetraspanin Co-029/tspan8 (protein, UniProt P19075 1-237)
chain: T1 sequence
B4: CD81 (protein, UniProt P60033 1-236)
chain: MGVEGCTKCIKYLLFVFNFVFWLAGGVILGVALWLRHDPQTTNLLYLELGDKPAPNTFYVGIYILIAVGAVMMFVGFLGCYGAIQESQCLLGTFFTCLVILFACEVAAGIWGFVNKDQIAKDVKQFYDQALQQAVVDDDANNAKAVVKTFHETLDCCGSSTLTALTTSVLKNNLCPSGSNIISNLFKEDCHQKIDDLFSGKLYLIGIAAIVVAVIMIFEMILSMVLCCGIRNSSVY
B5: EPCAM (protein, UniProt P16422 24-314)
chain: QEECVCENYKLAVNCFVNNNRQCQCTSVGAQNTVICSKLAAKCLVMKAEMNGSKLGRRAKPEGALQNNDGLYDPDCDESGLFKAKQCNGTSMCWCVNTAGVRRTDKDTEITCSERVRTYWIIIELKHKAREKPYDSKSLRTALQKEITTRYQLDPKFITSILYENNVITIDLVQNSSQKTQNDVDIADVAYYFEKDVKGESLFHSKKMDLTVNGEQLDLDPGQTLIYYVDEKAPEFSMQGLKAGVIAVIVVVVIAVVAGIVVLVISRKKRMAKYEKAEIKEMGEMHRELNA
B6: PLP2 (protein, UniProt Q04941 1-152)
chain: MADSERLSAPGCWAACTNFSRTRKGILLFAEIILCLVILICFSASTPGYSSLSVIEMILAAIFFVVYMCDLHTKIPFINWPWSDFFRTLIAAILYLITSIVVLVERGNHSKIVAGVLGLIATCLFGYDAYVTFPVRQPRHTAAPTDPADGPV
B7: PTGFRN (protein, UniProt Q9P2B2 26-879)
chain: VPTATLVRVVGTELVIPCNVSDYDGPSEQNFDWSFSSLGSSFVELASTWEVGFPAQLYQERLQRGEILLRRTANDAVELHIKNVQPSDQGHYKCSTPSTDATVQGNYEDTVQVKVLADSLHVGPSARPPPSLSLREGEPFELRCTAASASPLHTHLALLWEVHRGPARRSVLALTHEGRFHPGLGYEQRYHSGDVRLDTVGSDAYRLSVSRALSADQGSYRCIVSEWIAEQGNWQEIQEKAVEVATVVIQPSVLRAAVPKNVSVAEGKELDLTCNITTDRADDVRPEVTWSFSRMPDSTLPGSRVLARLDRDSLVHSSPHVALSHVDARSYHLLVRDVSKENSGYYYCHVSLWAPGHNRSWHKVAEAVSSPAGVGVTWLEPDYQVYLNASKVPGFADDPTELACRVVDTKSGEANVRFTVSWYYRMNRRSDNVVTSELLAVMDGDWTLKYGERSKQRAQDGDFIFSKEHTDTFNFRIQRTTEEDRGNYYCVVSAWTKQRNNSWVKSKDVFSKPVNIFWALEDSVLVVKARQPKPFFAAGNTFEMTCKVSSKNIKSPRYSVLIMAEKPVGDLSSPNETKYIISLDQDSVVKLENWTDASRVDGVVLEKVQEDEFRYRMYQTQVSDAGLYRCMVTAWSPVRGSLWREAATSLSNPIEIDFQTSGPIFNASVHSDTPSVIRGDLIKLFCIITVEGAALDPDDMAFDVSWFAVHSFGLDKAPVLLSSLDRKGIVTTSRRDWKSDLSLERVSVLEFLLQVHGSEDQDFGNYYCSVTPWVKSPTGSWQKEAEIHSKPVFITVKMDVLNAFKYPLLIGVGLSTVIGLLSCLIGYCSSHWCCKKEVQETRRERRRLMSMEMD
B8: IGSF8 (protein, UniProt Q969P0 28-613)
chain: REVLVPEGPLYRVAGTAVSISCNVTGYEGPAQQNFEWFLYRPEAPDTALGIVSTKDTQFSYAVFKSRVVAGEVQVQRLQGDAVVLKIARLQAQDAGIYECHTPSTDTRYLGSYSGKVELRVLPDVLQVSAAPPGPRGRQAPTSPPRMTVHEGQELALGCLARTSTQKHTHLAVSFGRSVPEAPVGRSTLQEVVGIRSDLAVEAGAPYAERLAAGELRLGKEGTDRYRMVVGGAQAGDAGTYHCTAAEWIQDPDGSWAQIAEKRAVLAHVDVQTLSSQLAVTVGPGERRIGPGEPLELLCNVSGALPPAGRHAAYSVGWEMAPAGAPGPGRLVAQLDTEGVGSLGPGYEGRHIAMEKVASRTYRLRLEAARPGDAGTYRCLAKAYVRGSGTRLREAASARSRPLPVHVREEGVVLEAVAWLAGGTVYRGETASLLCNISVRGGPPGLRLAASWWVERPEDGELSSVPAQLVGGVGQDGVAELGVRPGGGPVSVELVGPRSHRLRLHSLGPEDEGVYHCAPSAWVQHADYSWYQAGSARSGPVTVYPYMHALDTLFVPLLVGTGVALVTGATVLGTITCCFMKRLRKR

Experiments:
[1] = biological target: CD9 (human (endogenous in Isreco1)) (UniProt P21926); assay: affinity purification with mass spectrometry; 1% Brij97 lysates of Isreco1 and Is1-Co029 cells cultured on collagen I (also on tissue culture plastic); beads coupled to mAb Ts9 (CD9) or TS29.2 (Co-029); SDS-PAGE, in-gel trypsin digestion, LC-MS/MS
[2] = biological target: T1, tetraspanin Co-029/tspan8; assay: as above

Molecule | binding [1] | binding [2]
SLC3A2 (from UniProt P08195 1-529) | binds | binds
MCAM (from UniProt P43121 24-646) | binds | binds
NOTCH2 (human (endogenous in Isreco1)) | – | binds
GPR126 (human (endogenous in Isreco1)) | – | binds
TENM3 (from UniProt Q9P273 1-2699) | binds | binds
CD46 (from UniProt P15529 35-392) | binds | binds
LDLR (from UniProt P01130 22-860) | binds | binds
CLDN1 (from UniProt O95832 1-211) | binds | binds
ITGA3 (human (endogenous in Isreco1)) | – | binds
E-cadherin (human (endogenous in Isreco1)) | – | binds
L1CAM (from UniProt P32004 20-1257) | binds | binds
ADAM10 (from UniProt O14672 214-748) | – | binds
GPR110 (human (endogenous in Isreco1)) | – | binds
CDCP1 (from UniProt Q9H5V8 30-836) | binds | binds
ITGB1 (from UniProt P05556 21-798) | binds | binds
CD97 (human (endogenous in Isreco1)) | – | binds
CD9 (from UniProt P21926 1-228) | – | binds
BSG (from UniProt P35613-2) | – | binds
PCDH1 (from UniProt Q08174 58-1060) | binds | binds

Molecule | binding [1] | binding [2]
ADAM17 (from UniProt P78536 215-824) | – | binds
SDC4 (from UniProt P31431 19-198) | binds | binds
CD63 (from UniProt P08962 1-238) | binds | binds
GPR56 (human (endogenous in Isreco1)) | – | binds
ATP1B3 (from UniProt P54709 1-279) | binds | binds
PLAUR (from UniProt Q03405 23-305) | binds | binds
GGT1 (from UniProt P19440 1-569) | binds | binds
STX2 (from UniProt P32856 1-288) | binds | binds
ITGA6 (human (endogenous in Isreco1)) | – | binds
PLSCR3 (from UniProt Q9NRY6 1-295) | binds | binds
B1 | binds | binds
B2 | binds | binds
B3 | binds | –
B4 | – | binds
B5 | binds | binds
B6 | binds | binds
B7 | – | binds
B8 | – | binds
